Some of the results follow.

Amino acid sequences for entries named in this document (tags omitted). A change or cut given only in a name is not applied to a line headed by its entry.
UniProt Q9Y232: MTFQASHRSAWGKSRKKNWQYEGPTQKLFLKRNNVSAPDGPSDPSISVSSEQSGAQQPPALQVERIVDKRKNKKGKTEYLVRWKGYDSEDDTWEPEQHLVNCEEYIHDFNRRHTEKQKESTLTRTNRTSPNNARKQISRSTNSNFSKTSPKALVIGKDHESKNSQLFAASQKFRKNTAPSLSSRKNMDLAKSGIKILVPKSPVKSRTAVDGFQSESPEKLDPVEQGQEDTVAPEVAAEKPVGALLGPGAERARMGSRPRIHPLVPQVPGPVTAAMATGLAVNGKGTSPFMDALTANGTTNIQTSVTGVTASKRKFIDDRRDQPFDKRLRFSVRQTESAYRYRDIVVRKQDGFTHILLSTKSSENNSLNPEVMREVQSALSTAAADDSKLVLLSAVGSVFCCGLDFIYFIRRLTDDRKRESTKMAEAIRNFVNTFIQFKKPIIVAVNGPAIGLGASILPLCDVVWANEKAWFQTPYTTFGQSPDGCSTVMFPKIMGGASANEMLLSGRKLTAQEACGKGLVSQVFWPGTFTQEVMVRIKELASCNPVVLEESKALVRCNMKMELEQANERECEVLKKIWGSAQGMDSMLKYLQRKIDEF
UniProt P08603, whole entry, looked up: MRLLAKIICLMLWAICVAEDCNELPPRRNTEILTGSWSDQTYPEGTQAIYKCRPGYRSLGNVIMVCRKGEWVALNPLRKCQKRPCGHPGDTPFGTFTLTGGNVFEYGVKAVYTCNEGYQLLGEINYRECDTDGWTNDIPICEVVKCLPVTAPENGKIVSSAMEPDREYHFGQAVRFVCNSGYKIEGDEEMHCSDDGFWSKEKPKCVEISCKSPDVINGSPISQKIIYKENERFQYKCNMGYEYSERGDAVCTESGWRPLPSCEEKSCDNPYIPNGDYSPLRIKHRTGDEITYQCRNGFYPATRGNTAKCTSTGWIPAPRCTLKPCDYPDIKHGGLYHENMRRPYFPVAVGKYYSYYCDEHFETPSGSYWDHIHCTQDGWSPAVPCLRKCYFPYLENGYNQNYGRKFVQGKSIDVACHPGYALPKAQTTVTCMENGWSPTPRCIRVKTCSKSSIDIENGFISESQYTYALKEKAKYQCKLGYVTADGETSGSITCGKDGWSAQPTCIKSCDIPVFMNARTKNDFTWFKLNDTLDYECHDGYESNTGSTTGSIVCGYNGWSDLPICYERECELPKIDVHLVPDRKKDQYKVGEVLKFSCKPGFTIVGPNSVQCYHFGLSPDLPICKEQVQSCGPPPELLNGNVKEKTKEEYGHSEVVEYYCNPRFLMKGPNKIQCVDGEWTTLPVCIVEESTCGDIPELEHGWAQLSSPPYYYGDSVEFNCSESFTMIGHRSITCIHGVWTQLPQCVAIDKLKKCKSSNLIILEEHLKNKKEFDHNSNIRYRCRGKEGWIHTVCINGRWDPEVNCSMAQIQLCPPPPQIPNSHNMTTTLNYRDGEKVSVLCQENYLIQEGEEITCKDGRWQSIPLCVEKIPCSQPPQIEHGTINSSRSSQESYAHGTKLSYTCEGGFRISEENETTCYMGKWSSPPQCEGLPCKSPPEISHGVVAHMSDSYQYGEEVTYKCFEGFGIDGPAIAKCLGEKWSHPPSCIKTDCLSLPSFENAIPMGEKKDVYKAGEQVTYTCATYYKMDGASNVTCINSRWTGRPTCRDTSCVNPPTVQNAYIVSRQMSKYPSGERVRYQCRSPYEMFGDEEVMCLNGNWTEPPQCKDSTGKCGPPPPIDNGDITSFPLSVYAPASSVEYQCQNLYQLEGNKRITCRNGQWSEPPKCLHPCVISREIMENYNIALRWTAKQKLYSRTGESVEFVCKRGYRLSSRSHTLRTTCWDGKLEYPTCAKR
UniProt P23528, whole entry, looked up: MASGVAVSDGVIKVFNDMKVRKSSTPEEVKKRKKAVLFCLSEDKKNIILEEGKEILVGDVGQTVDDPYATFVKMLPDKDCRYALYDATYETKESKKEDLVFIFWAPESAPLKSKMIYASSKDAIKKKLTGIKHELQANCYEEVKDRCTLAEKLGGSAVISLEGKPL
UniProt Q9BV73: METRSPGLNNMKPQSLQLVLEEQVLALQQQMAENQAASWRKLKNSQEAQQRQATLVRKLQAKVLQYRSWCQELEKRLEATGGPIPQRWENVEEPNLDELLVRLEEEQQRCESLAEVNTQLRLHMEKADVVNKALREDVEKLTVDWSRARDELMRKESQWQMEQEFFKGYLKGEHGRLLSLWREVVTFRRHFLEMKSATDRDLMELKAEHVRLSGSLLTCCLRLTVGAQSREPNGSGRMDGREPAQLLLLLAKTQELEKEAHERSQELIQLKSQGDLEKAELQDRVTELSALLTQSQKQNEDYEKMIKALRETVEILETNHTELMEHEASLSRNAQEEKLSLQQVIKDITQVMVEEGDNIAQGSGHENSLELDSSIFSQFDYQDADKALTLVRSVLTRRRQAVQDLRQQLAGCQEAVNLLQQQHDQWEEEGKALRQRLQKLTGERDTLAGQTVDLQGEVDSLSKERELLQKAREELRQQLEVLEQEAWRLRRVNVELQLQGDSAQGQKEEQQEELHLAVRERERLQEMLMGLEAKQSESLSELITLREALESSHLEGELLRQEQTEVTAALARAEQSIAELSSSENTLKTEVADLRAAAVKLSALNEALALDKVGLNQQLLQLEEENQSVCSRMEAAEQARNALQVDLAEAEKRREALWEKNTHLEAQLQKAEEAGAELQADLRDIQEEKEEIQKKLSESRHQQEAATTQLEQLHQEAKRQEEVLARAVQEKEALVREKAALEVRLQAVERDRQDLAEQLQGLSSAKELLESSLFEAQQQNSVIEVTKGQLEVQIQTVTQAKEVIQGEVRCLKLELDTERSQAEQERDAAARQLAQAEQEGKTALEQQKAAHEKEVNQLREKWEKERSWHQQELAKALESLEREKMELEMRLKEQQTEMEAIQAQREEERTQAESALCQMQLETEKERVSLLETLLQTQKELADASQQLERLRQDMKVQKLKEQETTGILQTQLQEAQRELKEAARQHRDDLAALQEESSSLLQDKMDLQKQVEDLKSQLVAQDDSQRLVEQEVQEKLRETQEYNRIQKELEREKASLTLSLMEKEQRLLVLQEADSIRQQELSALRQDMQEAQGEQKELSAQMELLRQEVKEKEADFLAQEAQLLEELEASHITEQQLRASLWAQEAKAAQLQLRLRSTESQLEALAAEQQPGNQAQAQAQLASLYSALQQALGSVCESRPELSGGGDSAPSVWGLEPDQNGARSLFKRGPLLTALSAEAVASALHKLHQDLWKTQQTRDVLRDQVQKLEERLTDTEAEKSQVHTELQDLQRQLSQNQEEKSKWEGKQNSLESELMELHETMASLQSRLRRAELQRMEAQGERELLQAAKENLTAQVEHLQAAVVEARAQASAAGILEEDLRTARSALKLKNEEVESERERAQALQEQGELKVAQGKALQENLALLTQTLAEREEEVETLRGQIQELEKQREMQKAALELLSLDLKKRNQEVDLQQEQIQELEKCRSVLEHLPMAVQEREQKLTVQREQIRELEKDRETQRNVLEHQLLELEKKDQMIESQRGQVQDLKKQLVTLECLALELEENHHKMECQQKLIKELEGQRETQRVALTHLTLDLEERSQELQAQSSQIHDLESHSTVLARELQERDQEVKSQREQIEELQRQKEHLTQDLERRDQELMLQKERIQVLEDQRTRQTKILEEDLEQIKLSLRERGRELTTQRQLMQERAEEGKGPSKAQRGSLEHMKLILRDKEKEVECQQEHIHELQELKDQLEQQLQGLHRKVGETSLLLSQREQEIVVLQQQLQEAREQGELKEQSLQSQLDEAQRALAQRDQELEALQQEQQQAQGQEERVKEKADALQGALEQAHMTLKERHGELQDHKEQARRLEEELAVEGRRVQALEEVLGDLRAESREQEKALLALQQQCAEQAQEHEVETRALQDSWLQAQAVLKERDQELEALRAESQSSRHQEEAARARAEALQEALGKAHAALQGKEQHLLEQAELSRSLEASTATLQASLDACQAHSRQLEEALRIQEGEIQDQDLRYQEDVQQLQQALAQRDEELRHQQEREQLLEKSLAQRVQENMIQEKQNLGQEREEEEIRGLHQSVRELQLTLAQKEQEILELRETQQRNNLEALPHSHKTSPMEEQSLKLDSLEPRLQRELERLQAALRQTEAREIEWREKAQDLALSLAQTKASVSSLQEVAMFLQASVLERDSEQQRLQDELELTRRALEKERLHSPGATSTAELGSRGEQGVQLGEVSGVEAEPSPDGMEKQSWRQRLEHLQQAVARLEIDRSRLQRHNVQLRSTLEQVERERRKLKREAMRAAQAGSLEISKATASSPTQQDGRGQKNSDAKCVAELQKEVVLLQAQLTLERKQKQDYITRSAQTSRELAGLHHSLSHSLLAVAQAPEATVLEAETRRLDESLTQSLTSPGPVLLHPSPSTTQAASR
UniProt O43633: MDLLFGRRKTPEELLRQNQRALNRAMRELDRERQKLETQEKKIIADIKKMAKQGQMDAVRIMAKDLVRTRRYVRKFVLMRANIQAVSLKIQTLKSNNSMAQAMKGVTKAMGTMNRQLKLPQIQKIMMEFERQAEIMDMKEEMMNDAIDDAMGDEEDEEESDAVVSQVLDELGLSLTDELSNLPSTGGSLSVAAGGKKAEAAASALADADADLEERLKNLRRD
UniProt Q9H3R5: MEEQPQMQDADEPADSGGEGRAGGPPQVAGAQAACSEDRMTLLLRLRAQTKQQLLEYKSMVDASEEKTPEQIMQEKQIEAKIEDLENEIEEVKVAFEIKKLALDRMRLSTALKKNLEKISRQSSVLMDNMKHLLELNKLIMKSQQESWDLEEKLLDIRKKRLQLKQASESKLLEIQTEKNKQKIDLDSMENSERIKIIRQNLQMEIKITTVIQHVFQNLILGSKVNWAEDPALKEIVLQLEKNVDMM
UniProt Q92879: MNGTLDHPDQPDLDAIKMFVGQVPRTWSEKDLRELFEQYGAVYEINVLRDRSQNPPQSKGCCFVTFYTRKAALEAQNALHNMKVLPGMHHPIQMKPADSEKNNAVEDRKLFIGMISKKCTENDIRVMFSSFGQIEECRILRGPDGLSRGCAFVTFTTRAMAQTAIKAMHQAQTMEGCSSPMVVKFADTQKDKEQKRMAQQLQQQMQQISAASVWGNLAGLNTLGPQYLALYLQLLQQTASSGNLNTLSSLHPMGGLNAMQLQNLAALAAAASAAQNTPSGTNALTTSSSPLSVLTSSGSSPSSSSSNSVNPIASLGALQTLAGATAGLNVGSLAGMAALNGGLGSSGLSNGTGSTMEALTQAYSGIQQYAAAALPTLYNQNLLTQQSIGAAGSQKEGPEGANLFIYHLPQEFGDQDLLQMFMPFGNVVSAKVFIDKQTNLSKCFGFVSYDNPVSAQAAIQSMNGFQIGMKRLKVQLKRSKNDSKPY
UniProt P50750, whole entry, looked up: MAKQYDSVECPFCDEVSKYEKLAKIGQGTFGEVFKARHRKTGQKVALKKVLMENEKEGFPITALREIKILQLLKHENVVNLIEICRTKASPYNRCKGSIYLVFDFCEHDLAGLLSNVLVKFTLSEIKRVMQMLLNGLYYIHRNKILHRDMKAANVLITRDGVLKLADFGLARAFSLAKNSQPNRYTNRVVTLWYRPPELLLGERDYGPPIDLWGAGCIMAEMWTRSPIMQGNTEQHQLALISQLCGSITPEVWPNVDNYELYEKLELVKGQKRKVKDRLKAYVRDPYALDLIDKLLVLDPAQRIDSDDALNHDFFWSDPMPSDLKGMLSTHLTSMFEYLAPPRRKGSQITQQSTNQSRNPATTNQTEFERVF
UniProt Q5VV42: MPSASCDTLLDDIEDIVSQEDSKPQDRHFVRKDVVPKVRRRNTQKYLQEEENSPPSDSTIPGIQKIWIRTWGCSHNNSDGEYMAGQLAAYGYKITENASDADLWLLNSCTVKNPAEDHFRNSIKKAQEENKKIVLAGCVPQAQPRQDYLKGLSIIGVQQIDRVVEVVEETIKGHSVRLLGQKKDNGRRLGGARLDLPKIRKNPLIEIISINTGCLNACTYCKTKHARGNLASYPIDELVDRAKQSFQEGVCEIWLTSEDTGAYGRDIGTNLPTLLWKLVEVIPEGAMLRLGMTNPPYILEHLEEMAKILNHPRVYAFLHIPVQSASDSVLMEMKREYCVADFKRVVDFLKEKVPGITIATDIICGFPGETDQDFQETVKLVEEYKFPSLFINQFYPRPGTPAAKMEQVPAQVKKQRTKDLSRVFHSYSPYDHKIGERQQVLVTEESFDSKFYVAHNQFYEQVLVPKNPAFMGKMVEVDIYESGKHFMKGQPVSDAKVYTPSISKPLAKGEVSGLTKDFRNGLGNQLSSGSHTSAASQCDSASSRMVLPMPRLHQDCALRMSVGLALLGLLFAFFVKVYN
UniProt Q9NX63: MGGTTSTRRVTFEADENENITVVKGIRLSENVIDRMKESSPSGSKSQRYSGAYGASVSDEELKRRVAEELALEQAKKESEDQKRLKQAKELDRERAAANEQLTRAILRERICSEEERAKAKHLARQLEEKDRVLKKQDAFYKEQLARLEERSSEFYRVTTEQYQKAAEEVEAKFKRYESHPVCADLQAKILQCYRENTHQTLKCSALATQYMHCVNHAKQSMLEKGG

Compound in the first test: CNC(=O)C1=CC=CC=C1NC2=NC(=NC=C2Cl)NC3=C(C=C(C=C3)N4CCOCC4)OC
The test is described as follows: log2 fold change, soluble protein after heating vs DMSO (PISA); higher = thermal stabilisation; K562 cells, 10 uM, 30 min; active = over 0.2 and 3.5 SD of the protein, either way, in both replicates (recomputed). Summed up: (§1)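 Quantification of soluble protein used TMTpro 16plex LC-MS/MS, with channel sums equalised. Samples were the supernatant after 21,000xg for 90 min of pooled aliquots from K562 cells (2×10^6 cells/mL) treated with 10 μM compound for 30 min, heated for 3 min over 48°C-58°C, and extracted in PBS with 0.5% NP-40 at 4°C. Values, from duplicates, describe thermal stability against control samples on a log2 fold-change scale.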
For CEP44 (UniProt Q9C0F1), the log2 fold change was inactive: 0.082.

Take CDYL (UniProt Q9Y232): the log2 fold change is inactive: -0.007.

CFH (UniProt P08603): the log2 fold change was inactive: -0.038.

For the target CHD6 (UniProt Q8TD26), the log2 fold change is inactive: 0.242.

For the target CFL1 (UniProt P23528), the log2 fold change was inactive: 0.113.

CDCA5 (UniProt Q96FF9): the log2 fold change is inactive: -0.055.

Regarding CHD5 (UniProt Q8TDI0), the log2 fold change was inactive: 0.032.

In the case of CEP250 (UniProt Q9BV73), the log2 fold change was inactive: 0.071.

As for CHMP2A (UniProt O43633), the log2 fold change is inactive: -0.008.

With CHAF1B (UniProt Q13112), the log2 fold change is inactive: -0.069.

For CHM (UniProt P24386), the log2 fold change was inactive: 0.107.

Take CENPH (UniProt Q9H3R5): the log2 fold change was inactive: 0.027.

In the case of CDKN2C (UniProt P42773), the log2 fold change was inactive: -0.017.

Regarding CELF1 isoform 4 (UniProt Q92879), the log2 fold change was inactive: -0.008.

As to CDIPT (UniProt O14735), the log2 fold change was inactive: -0.008.

Regarding CFAP20 (UniProt Q9Y6A4), the log2 fold change was inactive: -0.007.

Regarding CDC42EP4 (UniProt Q9H3Q1), the log2 fold change was inactive: -0.045.

Consider CDK19 (UniProt Q9BWU1), for which the log2 fold change was inactive: -0.209.

In the case of CENPF (UniProt P49454), the log2 fold change was inactive: 0.014.

As to CERS6 isoform 2 (UniProt Q6ZMG9), the log2 fold change was inactive: 0.004.

Turning to CHEK2 isoform 9 (UniProt O96017), the log2 fold change is inactive: -0.161.

As for CDC42BPA isoform 6 (UniProt Q5VT25), the log2 fold change was inactive: -0.037.

Regarding CEP97 isoform 2 (UniProt Q8IW35), the log2 fold change is inactive: 0.009.

On to CDK9 isoform 2 (UniProt P50750), for which the log2 fold change is inactive: -0.07.

With CENPO (UniProt Q9BU64), the log2 fold change is inactive: 0.057.

Regarding CDCA3 (UniProt Q99618), the log2 fold change was inactive: -0.008.

As to CDS2 (UniProt O95674), the log2 fold change was inactive: -0.009.

In the case of CEP192 (UniProt Q8TEP8), the log2 fold change is inactive: -0.083.

With CHMP1B (UniProt Q7LBR1), the log2 fold change is inactive: -0.022.

In the case of CHCHD7 isoform 4 (UniProt Q9BUK0), the log2 fold change was inactive: -0.068.

With CFL2 (UniProt Q9Y281), the log2 fold change is inactive: 0.027.

Take CDKAL1 (UniProt Q5VV42): the log2 fold change is inactive: -0.018.

For the target CEP170 (UniProt Q5SW79), the log2 fold change is inactive: -0.121.

On to CHCHD3 (UniProt Q9NX63), for which the log2 fold change is inactive: 0.021.

Take CFAP298 (UniProt P57076): the log2 fold change was inactive: 0.026.

As to CHKB (UniProt Q9Y259), the log2 fold change was inactive: -0.048.

Take CHMP1A (UniProt Q9HD42): the log2 fold change is inactive: -0.023.

In the case of CHML (UniProt P26374), the log2 fold change is inactive: -0.013.

Compound in another test: CNC(=O)c1ccc(Nc2ncc(C(F)(F)F)c(NCc3nccnc3N(C)S(C)(=O)=O)n2)cc1 [defactinib]
The description is as above. Summed up:
as §1
On to CEP44 (UniProt Q9C0F1), for which the log2 fold change was inactive: -0.104.

For CDYL (UniProt Q9Y232), the log2 fold change was inactive: -0.075.

As for CFH (UniProt P08603), the log2 fold change was inactive: -0.016.

As to CHD6 (UniProt Q8TD26), the log2 fold change was inactive: -0.017.

Turning to CFL1 (UniProt P23528), the log2 fold change was inactive: -0.008.

Consider CDCA5 (UniProt Q96FF9), for which the log2 fold change was inactive: -0.078.

For the target CHD5 (UniProt Q8TDI0), the log2 fold change was inactive: -0.26.

As for CEP250 (UniProt Q9BV73), the log2 fold change is inactive: -0.027.

For CHMP2A (UniProt O43633), the log2 fold change was inactive: -0.014.

For the target CHAF1B (UniProt Q13112), the log2 fold change was inactive: 0.003.

For CHM (UniProt P24386), the log2 fold change was inactive: -0.006.

In the case of CENPH (UniProt Q9H3R5), the log2 fold change was inactive: -0.216.

For CDKN2C (UniProt P42773), the log2 fold change is inactive: 0.041.

CELF1 isoform 4 (UniProt Q92879): the log2 fold change is inactive: -0.032.

For CDIPT (UniProt O14735), the log2 fold change was inactive: -0.043.

With CFAP20 (UniProt Q9Y6A4), the log2 fold change was inactive: 0.046.

Take CDC42EP4 (UniProt Q9H3Q1): the log2 fold change is inactive: -0.091.

Regarding CDK19 (UniProt Q9BWU1), the log2 fold change was inactive: 0.046.

For the target CENPF (UniProt P49454), the log2 fold change is inactive: -0.023.

As to CERS6 isoform 2 (UniProt Q6ZMG9), the log2 fold change was inactive: -0.004.

With CHEK2 isoform 9 (UniProt O96017), the log2 fold change was inactive: -0.01.

On to CDC42BPA isoform 6 (UniProt Q5VT25), for which the log2 fold change was inactive: -0.183.

With CEP97 isoform 2 (UniProt Q8IW35), the log2 fold change was inactive: -0.042.

CDK9 isoform 2 (UniProt P50750): the log2 fold change is inactive: 0.03.

For CENPO (UniProt Q9BU64), the log2 fold change was inactive: -0.236.

Consider CDCA3 (UniProt Q99618), for which the log2 fold change was inactive: 0.009.

On to CDS2 (UniProt O95674), for which the log2 fold change was inactive: -0.04.

With CEP192 (UniProt Q8TEP8), the log2 fold change is inactive: -0.007.

Consider CHMP1B (UniProt Q7LBR1), for which the log2 fold change is inactive: 0.014.

Take CHCHD7 isoform 4 (UniProt Q9BUK0): the log2 fold change is inactive: -0.131.

For the target CFL2 (UniProt Q9Y281), the log2 fold change was inactive: -0.028.

Turning to CDKAL1 (UniProt Q5VV42), the log2 fold change was inactive: -0.074.

With CEP170 (UniProt Q5SW79), the log2 fold change was inactive: 0.016.

Turning to CHCHD3 (UniProt Q9NX63), the log2 fold change is inactive: -0.02.

On to CFAP298 (UniProt P57076), for which the log2 fold change was inactive: 0.

Turning to CHKB (UniProt Q9Y259), the log2 fold change is inactive: -0.09.

On to CHMP1A (UniProt Q9HD42), for which the log2 fold change was inactive: 0.002.

For CHML (UniProt P26374), the log2 fold change is inactive: -0.01.
